Consider 42 sequences from paper PMC7819943, “Rice protein-binding microarrays: a tool to detect cis-acting elements near promoter regions in rice”.

The other results are listed elsewhere or left out.

The assay concerns the target T1, OsSMF1 (Oryza sativa, UniProt Q6ZLB0 1-436).
T1 sequence: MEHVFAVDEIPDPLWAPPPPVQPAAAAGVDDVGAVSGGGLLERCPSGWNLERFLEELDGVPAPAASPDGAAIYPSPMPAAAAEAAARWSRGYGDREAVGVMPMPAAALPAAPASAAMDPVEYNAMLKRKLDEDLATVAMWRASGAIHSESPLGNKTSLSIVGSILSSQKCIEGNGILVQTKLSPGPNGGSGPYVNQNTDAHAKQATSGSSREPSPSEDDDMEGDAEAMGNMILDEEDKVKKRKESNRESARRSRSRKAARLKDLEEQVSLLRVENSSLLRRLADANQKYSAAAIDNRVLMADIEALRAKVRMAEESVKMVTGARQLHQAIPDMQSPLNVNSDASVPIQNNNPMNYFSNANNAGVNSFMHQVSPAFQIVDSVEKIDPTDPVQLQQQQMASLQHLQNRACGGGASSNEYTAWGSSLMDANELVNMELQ
As to the kind of experiment: protein-binding microarray (RPBM); PBS, 2% BSA, 51.3 ng/ul salmon testes DNA, 50 uM zinc acetate, 200 nM TF, 25 C, 1 h; high values mean tight binding. As to conditions: protein: recombinant; tags: N-terminal polyhistidine and DsRed monomer fusion (pET32a); chain copies: 2; label: CyDye5-dUTP incorporated in the synthesized complementary strand; 3' TTTTT single-stranded linker to array surface; dsDNA, one strand shown. Put shortly:
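Binding signal here means per-feature fluorescence intensity in arbitrary units. The values were read on an Axon 4000B scanner after a custom Agilent array, double-stranded by primer extension with Cy5-dUTP, was incubated with 200 nM protein at 25 °C for 1 h in PBS with 2% BSA, salmon testes DNA and 50 µM zinc acetate, then washed. The proteins were transcription factors with an N-terminal polyhistidine tag and DsRed, expressed in E. coli BL21-CodonPlus and purified on Ni–NTA.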
Take “GTATTTTGCATATCAGCCCCTATCTATTTATATGTCAGCCCGGAGTCACCTAGTGCAG”: the binding signal is 3630 fluorescence intensity (a.u.).

On to “TTTACCGGTACGACACCTGTGCAAGAACACGCCACGTCACCGGAGTCACCTAGTGCAG”, for which the binding signal was 23000 fluorescence intensity (a.u.).

With “CCTCCCACCACTGCGTCATCTCCAGATTCCCTTCTCCTGCCGGAGTCACCTAGTGCAG”, the binding signal is 5140 fluorescence intensity (a.u.).

For the sequence “AATATACACTTGATTAGTACTAATCAATCCAAAGCAATGACGGAGTCACCTAGTGCAG”, the binding signal is 28400 fluorescence intensity (a.u.).

With “GTAAATTGCGTCCACGGTATATAAACTTGGTAGGTGGGTGCGGAGTCACCTAGTGCAG”, the binding signal is 3230 fluorescence intensity (a.u.).

Regarding “CTGCCGTTTGGTGGCACGCCCGGCGCTGACTCGGACGGCGCGGAGTCACCTAGTGCAG”, the binding signal is 7670 fluorescence intensity (a.u.).

Regarding “TTTCTTTCGCGAACGTGTAAAAGGATTGCATGGCATCCCACGGAGTCACCTAGTGCAG”, the binding signal is 4080 fluorescence intensity (a.u.).

For “AATAATCTTGTAATACATATGCATATTATTATGTTCTCACCGGAGTCACCTAGTGCAG”, the binding signal is 3640 fluorescence intensity (a.u.).

For “CCAAAGCTGCGCAGCACCCTGAACGGCACCACACCACGGACGGAGTCACCTAGTGCAG”, the binding signal is 57400 fluorescence intensity (a.u.).

Take “CCAAACACCTCCTTGCTGTCTCACCACAATGCCACTTTACCGGAGTCACCTAGTGCAG”: the binding signal was 22100 fluorescence intensity (a.u.).

Consider “CGCCGTACCGGAGCACGGTGGCTGTCCACGTGGCACCCCGCGGAGTCACCTAGTGCAG”, for which the binding signal is 21700 fluorescence intensity (a.u.).

Regarding “CCATTTCTGATAGTTTTCATCCCTAACGGCATCCACGTGGCGGAGTCACCTAGTGCAG”, the binding signal was 12900 fluorescence intensity (a.u.).

As for “TAGCTAGTTTAACTCGTACGATGAATCACGCCGAAACACACGGAGTCACCTAGTGCAG”, the binding signal was 4070 fluorescence intensity (a.u.).

Consider “CTCGGAATACGACGGCCCACTCGGCCCAGTACGGGCCCATCGGAGTCACCTAGTGCAG”, for which the binding signal is 3480 fluorescence intensity (a.u.).

Turning to “CAGTGTTCTCCATCAGTAGCAGTATCAGACAACACTTCTTCGGAGTCACCTAGTGCAG”, the binding signal is 3300 fluorescence intensity (a.u.).

Regarding “AATCCTAGTCAGCCGTGGGGCCCACGAGAACGATGGCCACCGGAGTCACCTAGTGCAG”, the binding signal was 5390 fluorescence intensity (a.u.).

Consider “TCCAGCTACTGTTGCAACTGTTCTTCTCACAGTCACAGGCCGGAGTCACCTAGTGCAG”, for which the binding signal was 3760 fluorescence intensity (a.u.).

“ACTTGCTGACCCCTCGTCCTCGTCATCGTCCGCCCTATGTCGGAGTCACCTAGTGCAG”: the binding signal was 16200 fluorescence intensity (a.u.).

“CGCGCCACCGGCTCACGCTGCAGGACTTCGCCGCGGTGTACGGAGTCACCTAGTGCAG”: the binding signal was 3180 fluorescence intensity (a.u.).

Regarding “CGGGAAGGCCAGTCCTCCGTCAGCATCCTCTCTTCCGTTGCGGAGTCACCTAGTGCAG”, the binding signal was 7730 fluorescence intensity (a.u.).

In the case of “TCTCCGCCAACCATCCCGCCACGTCAACCACCTTTCCATCCGGAGTCACCTAGTGCAG”, the binding signal is 32900 fluorescence intensity (a.u.).

“GATGAAGGTGATCGGGTCCACATCATAGGTTCAAAACTTGCGGAGTCACCTAGTGCAG”: the binding signal was 4930 fluorescence intensity (a.u.).

On to “TTTATTTATTACAAACCCAAAATAACTTGTAACGTGGAACCGGAGTCACCTAGTGCAG”, for which the binding signal was 3500 fluorescence intensity (a.u.).

In the case of “GATGCACGGTATGTCATCCGGTGACTTGCCATAGCAATGTCGGAGTCACCTAGTGCAG”, the binding signal was 4800 fluorescence intensity (a.u.).

Consider “TGTAATGTTATATCTTCTCTGGCACGTCGGAAAATCCTTGCGGAGTCACCTAGTGCAG”, for which the binding signal is 4890 fluorescence intensity (a.u.).

As for “CGTGTGTGTTTCTTGGGGCTGAGCTGTTTGCTCTCCTGGTCGGAGTCACCTAGTGCAG”, the binding signal is 3230 fluorescence intensity (a.u.).

On to “TCTCTTCTTTTATTTCCTTGACGTGTGTTATAGCTCTTCTCGGAGTCACCTAGTGCAG”, for which the binding signal is 3650 fluorescence intensity (a.u.).

“GGATGCTCCTTCTGTGTGTCTTCTGCTGGTCTTGGTGATCCGGAGTCACCTAGTGCAG”: the binding signal is 9610 fluorescence intensity (a.u.).

Turning to “GCCGCGCTGTGTGTCGCGCCACGCCCGCGTGGGCCCGCCGCGGAGTCACCTAGTGCAG”, the binding signal was 5130 fluorescence intensity (a.u.).

Turning to “CATGGTCGCCAACACCCTCCACGCCTGCGCCGTCCTCCTCCGGAGTCACCTAGTGCAG”, the binding signal is 3520 fluorescence intensity (a.u.).

In the case of “GATGAACTTTGCCACCTTCTCTAGGTATGACATATGTACGCGGAGTCACCTAGTGCAG”, the binding signal was 3610 fluorescence intensity (a.u.).

On to “TTGATATGACCAGTGCTGATGTAGAGTCAGACATGACCTCCGGAGTCACCTAGTGCAG”, for which the binding signal was 4320 fluorescence intensity (a.u.).

“GAGCAGCTTGCCGATGCGCACCTCGTTCCACGGGTCCCTGCGGAGTCACCTAGTGCAG”: the binding signal was 3340 fluorescence intensity (a.u.).

Consider “ATACGAATCACATTGAGTCATAGTTGAGAGAATCGAAATGCGGAGTCACCTAGTGCAG”, for which the binding signal was 3270 fluorescence intensity (a.u.).

In the case of “GGTTTCGCTGCTTGGTCATCACTGCTCCGTCGTCGGCTTGCGGAGTCACCTAGTGCAG”, the binding signal was 7260 fluorescence intensity (a.u.).

For “CGGGCTCCGATCGATCTCCATGATTAACCATCCGGCGTGGCGGAGTCACCTAGTGCAG”, the binding signal is 3540 fluorescence intensity (a.u.).

As for “CGCACGACAACTCTAGGTCAGCCACGAATCGTTTCACCTCCGGAGTCACCTAGTGCAG”, the binding signal was 3930 fluorescence intensity (a.u.).

“TTGATTTCCAACAATTTTGTAAGTAGTCACTGATCACCCACGGAGTCACCTAGTGCAG”: the binding signal is 3880 fluorescence intensity (a.u.).

Turning to “GCCGTATATAACGACCGCCTCCTCACCCCGGCCTCTCGCCCGGAGTCACCTAGTGCAG”, the binding signal is 3320 fluorescence intensity (a.u.).

For the sequence “GAATACTGGTTTGACTTACTCTTGTTTCGTCGTCACGCGCCGGAGTCACCTAGTGCAG”, the binding signal was 3950 fluorescence intensity (a.u.).

For the sequence “CCTGGAGGAAAGAAAGAAAGAAAGATGATAAGGCGGCTGGCGGAGTCACCTAGTGCAG”, the binding signal was 20700 fluorescence intensity (a.u.).

Turning to “AGCGGAGGGGTCGGGAGGCAGTGCGGTGGCTGGTCAGCGACGGAGTCACCTAGTGCAG”, the binding signal is 3470 fluorescence intensity (a.u.).
